From ChEMBL document CHEMBL3988442, “University of Dundee, Small-Polar-MMV Screening Library” (2021).

Sequences of proteins named here, by UniProt entry; tags and fusion partners are left off.
UniProt E9BF75, entry or part of it: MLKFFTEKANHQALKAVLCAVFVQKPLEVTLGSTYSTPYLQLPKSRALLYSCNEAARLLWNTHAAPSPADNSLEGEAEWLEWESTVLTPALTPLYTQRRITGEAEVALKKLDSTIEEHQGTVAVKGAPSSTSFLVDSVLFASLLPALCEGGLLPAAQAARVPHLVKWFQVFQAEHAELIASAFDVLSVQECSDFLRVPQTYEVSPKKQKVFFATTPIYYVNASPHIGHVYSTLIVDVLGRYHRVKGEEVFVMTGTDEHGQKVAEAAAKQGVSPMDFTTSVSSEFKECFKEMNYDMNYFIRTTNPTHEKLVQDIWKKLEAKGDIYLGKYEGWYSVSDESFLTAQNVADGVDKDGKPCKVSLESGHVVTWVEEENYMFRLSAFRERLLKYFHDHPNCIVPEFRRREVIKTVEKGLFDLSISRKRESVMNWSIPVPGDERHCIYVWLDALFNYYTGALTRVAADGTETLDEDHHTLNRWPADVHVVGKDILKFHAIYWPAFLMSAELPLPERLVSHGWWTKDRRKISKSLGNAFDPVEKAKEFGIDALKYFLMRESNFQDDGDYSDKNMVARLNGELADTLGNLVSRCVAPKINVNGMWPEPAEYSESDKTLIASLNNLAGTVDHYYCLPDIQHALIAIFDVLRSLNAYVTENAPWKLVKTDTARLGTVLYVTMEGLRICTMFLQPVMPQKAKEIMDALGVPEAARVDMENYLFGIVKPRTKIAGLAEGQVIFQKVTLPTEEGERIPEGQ

Mtb heat-shock: 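Assay on Mycobacterium tuberculosis, filed only as a heat shock assay from Cornell; the read-out is not stated. The concentration is filed as 10 mM, unlikely as a test dose, so the dose is not known. Direction is inferred from retests: higher values go with stronger inhibition. About 69,000 compounds were tested under these conditions; 1.4% (about 930) showed 50% or more at least once.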
LdMetRS: 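Primary screen of methionyl-tRNA synthetase; the read-out is not stated. Target: Methionyl-tRNA synthetase (putative), Leishmania donovani (UniProt E9BF75). The test concentration is not given. Values are per cent inhibition. Of about 68,000 compounds tested this way, about 24 (0.035%) reached 50% or more in at least one test.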
Mtb growth Cornell: 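Whole-cell assay for inhibitors of Mycobacterium tuberculosis growth, labelled Cornell in the record; the read-out is not stated. The concentration is filed as 10 mM, unlikely as a test dose, so the dose is not known. The record gives no direction; compounds strong in two other growth screens of this library score well above the rest, so higher reads as stronger inhibition. About 53,000 compounds were tested under these conditions; 1.7% (about 900) showed 50% or more at least once.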

Results are percentages, as filed.
The controls that fix the scale are not given in the record; negative values are as filed.
The compounds are a random part of those screened.

With CCc1nccn1CCCn1ccnc1-c1[nH]cnc1C the screen gave Mtb heat-shock: -42.33%; LdMetRS: 6.211%; Mtb growth Cornell: 1.231%.
With COCCSCC(=O)NCc1ccc(N(C)C)nc1 the screen gave Mtb heat-shock: -3.77%; LdMetRS: 4.693%; Mtb growth Cornell: -21.09%.
With Cc1ccc(C2CSCCN2C(=O)C2=CCCC2)o1 (stereo not shown) the screen gave Mtb heat-shock: 9.365%; LdMetRS: 10.78%; Mtb growth Cornell: 21.18%.
With CCCC(=O)N(C)c1cc(C#N)c2ccccc2n1 the screen gave Mtb heat-shock: 2.089%; LdMetRS: 15.11%; Mtb growth Cornell: 28.25%.
With CC(CCSc1ccccc1)N1CCN(C(=O)c2cccs2)CC1 (stereo not shown) the screen gave Mtb heat-shock: 96%; LdMetRS: 3.901%; Mtb growth Cornell: -18.8%.
With CCOc1cccc(COC(=O)c2ccc(Cl)cn2)n1 the screen gave Mtb heat-shock: 22.56%; LdMetRS: 20.07%; Mtb growth Cornell: 25.49%.
With O=C(O)CCCc1ccc2c(c1)CC(=O)N2 the screen gave Mtb heat-shock: -16.21%; LdMetRS: 9.041%.
With Cc1ccc(S(=O)(=O)N2C[C@@H]3C[C@@H](NC(=O)C(C)(C)C)[C@@H]3C2)cc1 the screen gave LdMetRS: 16.78%.
With CN1CCn2c(-c3ccccc3)cnc2C12CCN(CC1CC1)CC2 the screen gave LdMetRS: 17.07%.
With Cc1csc(N2CCN(C(=O)c3ccc(C)s3)CC2)n1 the screen gave Mtb heat-shock: 23.1%; LdMetRS: 8.282%.
With O=C1COc2cc(C(=O)NS(=O)(=O)c3ccc(F)cc3)ccc2N1 the screen gave Mtb heat-shock: -12.63%; LdMetRS: 0%; Mtb growth Cornell: 14.97%.
With CC(O)CN1CCN(CCOCC(F)(F)F)CC1 (stereo not shown) the screen gave Mtb heat-shock: -3.288%; LdMetRS: 9.645%.
With Cc1cc(-c2cnc(N3CCCC(C)C3)nc2-c2cccnc2C)on1.Cl (stereo not shown) the screen gave Mtb heat-shock: 14.73%; Mtb growth Cornell: 10.29%.
With Fc1cnc(N2C[C@H]3CCC[C@@]3(COc3ccccn3)C2)nc1 the screen gave LdMetRS: 11.2%.
With COC(=O)c1ccoc1CN(C1CC1)C1CCS(=O)(=O)C1 (stereo not shown) the screen gave Mtb heat-shock: 14.55%; LdMetRS: 13.97%; Mtb growth Cornell: 11.46%.
With O=C(Nc1cccc(OCC(F)F)n1)c1ccncc1 the screen gave Mtb heat-shock: -26.78%; LdMetRS: 16.42%; Mtb growth Cornell: 23.86%.
With Cc1nn(C)c2c(NCc3ccc(F)cc3)nc(C3CC3)nc12 the screen gave Mtb heat-shock: 9.569%; LdMetRS: 27.54%; Mtb growth Cornell: 32.95%.
With O=S(=O)(c1cccs1)N1CCN(Cc2nc(-c3ccco3)cs2)CC1 the screen gave Mtb heat-shock: -28.89%; LdMetRS: 14.66%; Mtb growth Cornell: 32.64%.
With Cl.O=C(N1CCCC1)C1(Cc2ccc(-c3cccs3)cc2)CCNC1 (stereo not shown) the screen gave Mtb heat-shock: -20.63%; Mtb growth Cornell: 13.04%.
With CCN1CCC(CC(=O)NCc2nc(C)cc(C)n2)CC1 the screen gave Mtb heat-shock: -1.276%; LdMetRS: 9.214%; Mtb growth Cornell: -14.33%.
With CCc1nnc(Nc2cccc(C3CCN(CCO)CC3)n2)s1 the screen gave Mtb heat-shock: 4.878%; LdMetRS: 16.78%; Mtb growth Cornell: 5.276%.
With CC(C)N1C(=O)C2(CCN(C)CC2)c2cc(F)ccc21.Cl the screen gave Mtb heat-shock: 2.772%; Mtb growth Cornell: 1.028%.
With Cc1ccc(-n2nnc(C(=O)Nc3cc(C)nn3C)c2C2CC2)cc1 the screen gave Mtb heat-shock: 30.21%; LdMetRS: 6.667%; Mtb growth Cornell: 25.13%.
With [H][C@]12CCN(C(=O)c3ccccc3)CC[C@@]1([H])S(=O)(=O)N(CC(=O)N(C)C)C2 the screen gave Mtb heat-shock: 10.8%; Mtb growth Cornell: -26.18%.
With COc1cccc2[nH]c(C(=O)N3CCNCC3C(N)=O)cc12 (stereo not shown) the screen gave LdMetRS: 7.143%.
With CC(NC(=O)C1CC1)C(=O)N(C)Cc1ccsc1 (stereo not shown) the screen gave Mtb heat-shock: 9.53%; LdMetRS: 5.307%; Mtb growth Cornell: -16.6%.
With CN(C)Cc1ccccc1CN(C)c1ncnc2[nH]ccc12 the screen gave Mtb heat-shock: -26.63%; LdMetRS: 10.47%; Mtb growth Cornell: -17.71%.
With CN(Cc1cccc(-n2cccn2)c1)c1cc(N2CCCC2)nc(N)n1 the screen gave Mtb heat-shock: 22.69%; LdMetRS: 4.177%; Mtb growth Cornell: 25.98%.
With CCCS(=O)(=O)CCN1CCOC(c2ccsc2)C1 (stereo not shown) the screen gave Mtb heat-shock: -4.421%; LdMetRS: 11.52%; Mtb growth Cornell: 22.38%.
With O=c1c2ccccc2nc2n1C(CSc1ccc(Cl)cc1)CN2 (stereo not shown) the screen gave Mtb heat-shock: 17.18%; LdMetRS: 22.64%; Mtb growth Cornell: 14.38%.
With O=C(N1CCCC1)N1CCC2(CC1)C(=O)N(CC1CC1)c1ccccc12 the screen gave Mtb heat-shock: 0.7439%; LdMetRS: 11.2%; Mtb growth Cornell: 13.28%.
With Fc1ccc(-c2nnc(CNC3CCc4ncnn4C3)o2)cc1 (stereo not shown) the screen gave Mtb heat-shock: 13.19%; LdMetRS: 4.511%.
With Cc1nc(CN2CCN(C(C)C(=O)NC3CCCC3)CC2)cs1 (stereo not shown) the screen gave Mtb heat-shock: -12.08%; LdMetRS: 7.796%; Mtb growth Cornell: -22.63%.
With N#Cc1cccc(CN2CCn3cc(Cn4cccn4)nc3C2)c1.O=C(O)C(F)(F)F.O=C(O)C(F)(F)F the screen gave Mtb heat-shock: -31.57%; Mtb growth Cornell: 8.184%.
With [H][C@]12CC[C@]([H])(CN(c3ncccn3)C1)N(C(=O)c1ccccc1C#N)C2 the screen gave Mtb heat-shock: -8.339%; Mtb growth Cornell: 5.042%.
With O=C(CCN1CCN(c2ccc3nncn3n2)CC1)N1CCCCC1 the screen gave Mtb heat-shock: -7.972%; LdMetRS: 15.91%.
With CCn1cc(S(=O)(=O)NCC(OC)c2cccc(Cl)c2)cn1 (stereo not shown) the screen gave Mtb heat-shock: 12.76%; LdMetRS: 10.14%; Mtb growth Cornell: -5.162%.
With COc1ccnc(NC(=O)CSCc2cccnc2)c1 the screen gave Mtb heat-shock: -51.41%; LdMetRS: 12.56%; Mtb growth Cornell: 0%.

The first 3 entries again:

Result for CCc1nccn1CCCn1ccnc1-c1[nH]cnc1C was Mtb heat-shock: -42.33%; LdMetRS: 6.211%; Mtb growth Cornell: 1.231%.
Result for COCCSCC(=O)NCc1ccc(N(C)C)nc1 was Mtb heat-shock: -3.77%; LdMetRS: 4.693%; Mtb growth Cornell: -21.09%.
Result for Cc1ccc(C2CSCCN2C(=O)C2=CCCC2)o1 (stereo not shown) was Mtb heat-shock: 9.365%; LdMetRS: 10.78%; Mtb growth Cornell: 21.18%.